Source: PubChem BioAssay AID540256 (National Center for Advancing Translational Sciences (NCATS), 2011)
Among all 300,000 compounds or so, about 3,700 (1.2%) were called active. The shares of active, inactive and inconclusive entries below differ from those in the screen. The call rests on the fitted dose curve; tested in HEK293 cells. Potencies beside an inconclusive call are fits to weak or partial responses and may not hold up.

experiment: qHTS for Inhibitors of binding or entry into cells for Lassa Virus; settings: Lassa virus pseudotype entry inhibition, cell reporter; activity change, negative = inhibition: at 37.9 µM (top of the series) unless noted; further: nearly all actives have a fitted effect of over 50% in size
On the % scale 0 is the no-effect control and ±100 the full control effect; potency means the concentration at half of the fitted maximal effect.

**Q.** Which Potency does the source give for `CCOC(=O)c1ccc2c(c1)N(C(CC)C(=O)Nc1ccccc1OC)C(=O)c1ccccc1S2` (stereo not drawn) here?
**A.** inconclusive: 8.91 µM [inhibitor, partial curve]

**Q.** For `COC(=O)[C@@H](NC(=O)O[C@@H]1C(=O)c2cc(Br)ccc2O[C@H]1c1cccc(OC)c1)C(C)C`, which Potency is on record?
**A.** inconclusive: 1.19 µM [activator, single point]

**Q.** Which Potency does the source give for `CCn1c(CCNC(=O)c2ccc(C)cc2)n[nH]c1=S` here?
**A.** inconclusive: 5.62 µM [activator, partial curve, poor fit]

**Q.** Which Potency does the source give for `CC(=O)Oc1ccc(C(=O)[C@H]2[C@H]3C(=O)N(c4ccc(C)cc4C)C(=O)[C@H]3[C@@H]3C=CC=NN32)cc1` here?
**A.** inactive

**Q.** With `O=C(CNS(=O)(=O)N1CCOCC1)N/N=C/c1cccnc1` as the compound, how does the Potency read?
**A.** inconclusive: 12.6 µM [activator, partial curve, poor fit]

**Q.** With `CC(=O)c1c(C)[nH]c(C(=O)OCc2cccc(Cl)c2)c1C` as the compound, how does the Potency read?
**A.** inconclusive: 35.5 µM [inhibitor, single point]

**Q.** Which Potency does the source give for `CCc1ccc(N(CC(=O)N2CCOCC2)S(C)(=O)=O)cc1` here?
**A.** inactive

**Q.** For `CCc1cc(CNC(=O)CCc2nnc(Cc3cccc(C)c3)o2)on1`, which Potency is on record?
**A.** inconclusive: 10 µM [activator, partial curve]

**Q.** Which Potency does the source give for `CC(C)(C)n1ncc2c(=O)n(CC(=O)NCc3ccccc3)cnc21` here?
**A.** inconclusive: 7.08 µM [inhibitor, partial curve, poor fit]

**Q.** For `Cc1cc(C(=O)Nc2ccc(Br)cc2F)n(-c2ccccc2)n1`, which Potency is on record?
**A.** inconclusive: 5.01 µM [inhibitor, partial curve, poor fit]

**Q.** Which activity change, negative = inhibition does the source give for `COc1ccc(C(C)=O)cc1COc1ncnc2ccccc12` here?
**A.** inconclusive: 27.6% [activator]

**Q.** With `Cc1ccc(CC(=O)N2CCOCC2)cc1` as the compound, how does the Potency read?
**A.** inactive

**Q.** Which Potency does the source give for `CC1CN(CC(=O)Nc2cccc(C(=O)Nc3cccc(C(F)(F)F)c3)c2)CC(C)O1` (stereo not drawn) here?
**A.** inconclusive: 10 µM [inhibitor, partial curve]

**Q.** With `CCn1cnc2cc(NCc3ccc(Br)cc3)ccc21` as the compound, how does the Potency read?
**A.** inconclusive: 20 µM [inhibitor, partial curve, poor fit]

**Q.** For `CC(O)CN1CC(O)=C(c2nc3ccccc3s2)C1=N` (stereo not drawn), which Potency is on record?
**A.** inactive

**Q.** With `O=c1oc2cc(O)ccc2cc1-c1nc2c(s1)CCc1ccccc1-2` as the compound, how does the Potency read?
**A.** inconclusive: 2.51 µM [inhibitor, full curve]

**Q.** For `CC1CCc2c(sc3nc(C4CC4)nc(N4CCN(C(=O)c5ccco5)CC4)c23)C1` (stereo not drawn), which Potency is on record?
**A.** inconclusive: 25.9 µM [inhibitor, single point]

**Q.** For `C=CCc1cccc(C=NNC(=O)CN2CCN(Cc3ccccc3)CC2)c1O`, which Potency is on record?
**A.** active: 11.6 µM
